Test results published in the supplement of paper PMC12067093, “Discovery and optimisation of a covalent ligand for TRIM25 and its application to targeted protein ubiquitination” (Chemical Science, 2025).
The other results are listed elsewhere or left out.

Compound: Cc1cc(ccc1-c1ccccc1)C(=O)N1CCCN(CC1)C(=O)CCl [compound 10]
Experiment: probe-labelled cysteine peptide fold change vs DMSO (competition) (log2 fold change); higher = less target engagement (more negative = stronger competition)
Conditions: THP-1, incubation time: 4 h
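Also: competitive profiling in live THP-1 cells: cysteine peptides tagged with an iodoacetamide desthiobiotin (IA-DTB) probe, intensity after compound treatment relative to DMSO-treated cells.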

Target	probe-labelled cysteine peptide fold change (10 µM)	probe-labelled cysteine peptide fold change (50 µM)
PREX1_Q8TCU6_1021_KPSLIGLDPEQGHLNPMSYTQHCITTMAAPSWK (UniProt Q8TCU6)	-0.0297	-0.468
PPP4R3B_Q5MIZ7_90_AGCDEIWEK (UniProt Q5MIZ7)	0.108	0.445
PRDX3_P30048_229_AFQYVETHGEVCPANWTPDSPTIK (UniProt P30048)	-0.104	0.126
PRDX1_Q06830_173_HGEVCPAGWKPGSDTIKPDVQK (UniProt Q06830)	-0.0994	-0.184
PPP1R27_Q86WC6_105_DEAGWTPLHIACSDGYPDIAR (UniProt Q86WC6)	0.329	0.349
PPP4R1_Q8TF05_84_EVCDDERDCIAVLER (UniProt Q8TF05)	-0.052	-0.258
PPP2R5E_Q16537_106_GCLTEQTYPEVVR (UniProt Q16537)	0.0684	0.0376
PPP4C_P60510_235_GAGYLFGSDVVAQFNAANDIDMICR (UniProt P60510)	0.071	0.0638
PREPL_Q4J6C6_391_LPPWACGFIMDTNSDPK (UniProt Q4J6C6)	-0.0878	-0.273
PRDX1_Q06830_71_LNCQVIGASVDSHFCHLAWVNTPK (UniProt Q06830)	0.0865	-0.0549
PPP2R1A_P30153_174_NLCSDDTPMVR (UniProt P30153)	-0.0569	-0.0571
PPP6R3_Q5H9R7_216_LVEIVHPSQEEDRHSNASQSLCEIVR (UniProt Q5H9R7)	0.00978	-0.0251
PPP1R3D_O95685_26_SLSCLSDLDGGVALEPR (UniProt O95685)	-0.329	-0.597
PPP6R3_Q5H9R7_467_IANCIVHSTDK (UniProt Q5H9R7)	0.0425	-0.0919
PPP1CC_P36873_202_RIMRPTDVPDQGLLCDLLWSDPDKDVLGWGENDR (UniProt P36873)	-0.051	-0.733
PRC1_O43663_236_SQNEAVCEGLR (UniProt O43663)	0.388	0.159
PRCP_P42785_394_ELSDDCFQQWGVRPR (UniProt P42785)	0.0699	0.275
PPP6R2_O75170_216_QSNASQTLCDIVR (UniProt O75170)	0.0523	-0.189

Target	probe-labelled cysteine peptide fold change (10 µM)	probe-labelled cysteine peptide fold change (50 µM)
PPP2R1A_P30153_310+317_EFCENLSADCR (UniProt P30153)	-0.111	0.164
PRDX4_Q13162_245_HGEVCPAGWKPGSETIIPDPAGK (UniProt Q13162)	-0.102	-0.0328
PREPL_Q4J6C6_184_IRTEDSEASTCVIIK (UniProt Q4J6C6)	0.143	0.142
PPP1R21_Q6ZMI0_468_LITTNDCILSSVVALTNGAGK (UniProt Q6ZMI0)	0.127	0.0617
PPP6C_O00743_265_CGNIASIMVFK (UniProt O00743)	0.123	-0.157
PPME1_Q9Y570_347_FQMQVLPQCGHAVHEDAPDK (UniProt Q9Y570)	-0.0465	-0.255
PRDX1_Q06830_71_KLNCQVIGASVDSHFCHLAWVNTPK (UniProt Q06830)	0.14	-0.0715
PPP1R9B_Q96SB3_732_LEGYWGEAQSLCQAVDEHLR (UniProt Q96SB3)	0.13	0.178
PPP1R3D_O95685_41_ACRPPGSPGR (UniProt O95685)	-0.0976	0.0462
PPP6C_O00743_192_GAFCDLVWSDPEDVDTWAISPR (UniProt O00743)	0.077	-0.255
PREX1_Q8TCU6_968+972_QAPLEPHPLCGLDFCPTNCHINLMEVSYPK (UniProt Q8TCU6)	-0.292	-0.787
PPM1H_Q9ULR3_56_FPYGRPEFLGLSQDEVECSADHIARPILILK (UniProt Q9ULR3)	-0.0772	0.121
PPIP5K1_Q6PFW1_675_VCDQVFALIENLTHQIR (UniProt Q6PFW1)	-0.0562	0.0718
PRAG1_Q86YV5_221_LAAFAGTTSGCHQGPGPLR (UniProt Q86YV5)	-0.112	-0.152
PPP1CB_P62140_201_RIMRPTDVPDTGLLCDLLWSDPDK (UniProt P62140)	0.0748	0.169
PPP1R8_Q12972_16_AAAANSGSSLPLFDCPTWAGKPPPGLHLDVVKGDK (UniProt Q12972)	-0.0956	-0.45
PREX1_Q8TCU6_963_QAPLEPHPLCGLDFCPTNCHINLMEVSYPK (UniProt Q8TCU6)	0.103	-0.112
PRDX3_P30048_127_ANEFHDVNCEVVAVSVDSHFSHLAWINTPR (UniProt P30048)	0.136	0.382

Single entries from the entries so far.
Entry for PPP6C_O00743_192_GAFCDLVWSDPEDVDTWAISPR (UniProt O00743) under probe-labelled cysteine peptide fold change (50 µM): -0.255
Entry for PPP2R1A_P30153_310+317_EFCENLSADCR (UniProt P30153) under probe-labelled cysteine peptide fold change (10 µM): -0.111
